Reference: PubChem BioAssay AID1259254 (NCATS, 2017)
Aim: 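Gene knock-downs that lead to re-replication, shown by excess G2 DNA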 (primary screen). System: human HCT116 colorectal cancer cells. Knock-down reagent: single siRNA against human genes. Timing: 3 days. Read-out: 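Imaged Hoechst DNA stain sorts each cell into a cycle phase by DNA amount; per plate, G2 fraction set to 0% for non-targeting and 100% for GMNN siRNA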. Reading the numbers: G2 robust z-score and G2 cells, % of GMNN control: higher = more G2 cells, more excess DNA replication. Call rule: 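An siRNA counts as active if its G2 robust z-score lies at least 5 MADs above the screen median; here such calls match roughly 38% of GMNN control or more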.
In all, the deposit lists about 59,000 reagents; this is an unselected part. Over the whole deposit, about 1,550 (2.6%) are marked active. 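G2 share is only a proxy for re-replication; each gene was hit by three separate siRNAs, and active genes were retested.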 Reagents against one gene are numbered here. Not all columns of the deposit are shown. The record does not give: the amount of reagent.

With UHMK1 #1, how do the results read?
G2 robust z-score: -0.755; G2 cells, % of GMNN control: -2.34; call: inactive

What is on record for UHMK1 #2?
G2 robust z-score: -0.567; G2 cells, % of GMNN control: -1.02; call: inactive

With UHMK1 #3, what was measured?
G2 robust z-score: -0.685; G2 cells, % of GMNN control: -1.85; call: inactive

How did the screen score KRT84 #1?
G2 robust z-score: -0.905; G2 cells, % of GMNN control: -3.4; call: inactive

How did the screen score KRT84 #2?
G2 robust z-score: -0.723; G2 cells, % of GMNN control: -2.12; call: inactive

With KRT84 #3, what was measured?
G2 robust z-score: -0.661; G2 cells, % of GMNN control: -1.68; call: inactive

With TMEM132E-DT #1, how do the results read?
G2 robust z-score: 0.104; G2 cells, % of GMNN control: 3.7; call: inactive

For TMEM132E-DT #2, how do the results read?
G2 robust z-score: 0.617; G2 cells, % of GMNN control: 7.31; call: inactive

What is on record for TMEM132E-DT #3?
G2 robust z-score: -0.225; G2 cells, % of GMNN control: 1.39; call: inactive

For ACVRL1 #1, what does the deposit list?
G2 robust z-score: 3.79; G2 cells, % of GMNN control: 29.6; call: inactive

Which result is listed for ACVRL1 #2?
G2 robust z-score: 2.04; G2 cells, % of GMNN control: 17.3; call: inactive

Which result is listed for ACVRL1 #3?
G2 robust z-score: -0.786; G2 cells, % of GMNN control: -2.56; call: inactive

What is on record for SMPD1 #1?
G2 robust z-score: -0.136; G2 cells, % of GMNN control: 2.01; call: inactive

Which result is listed for SMPD1 #2?
G2 robust z-score: 3.02; G2 cells, % of GMNN control: 24.2; call: inactive

For SMPD1 #3, how do the results read?
G2 robust z-score: 0.523; G2 cells, % of GMNN control: 6.65; call: inactive

With CTHRC1 #1, what was measured?
G2 robust z-score: -0.535; G2 cells, % of GMNN control: -0.797; call: inactive

For CTHRC1 #2, what does the deposit list?
G2 robust z-score: -0.382; G2 cells, % of GMNN control: 0.278; call: inactive

For CTHRC1 #3, how do the results read?
G2 robust z-score: -0.63; G2 cells, % of GMNN control: -1.47; call: inactive

How did the screen score PRSS8 #1?
G2 robust z-score: 0.862; G2 cells, % of GMNN control: 9.04; call: inactive

Which result is listed for PRSS8 #2?
G2 robust z-score: 0.52; G2 cells, % of GMNN control: 6.63; call: inactive

With PRSS8 #3, what does the deposit list?
G2 robust z-score: -0.738; G2 cells, % of GMNN control: -2.23; call: inactive

For NIPAL4 #1, what was measured?
G2 robust z-score: -0.272; G2 cells, % of GMNN control: 1.05; call: inactive

How did the screen score NIPAL4 #2?
G2 robust z-score: 0.871; G2 cells, % of GMNN control: 9.09; call: inactive

What is on record for NIPAL4 #3?
G2 robust z-score: 0.102; G2 cells, % of GMNN control: 3.68; call: inactive

Records listed so far whose gene name begins with T or t (3):
TMEM132E-DT #1 | G2 robust z-score: 0.104; G2 cells, % of GMNN control: 3.7; call: inactive
TMEM132E-DT #2 | G2 robust z-score: 0.617; G2 cells, % of GMNN control: 7.31; call: inactive
TMEM132E-DT #3 | G2 robust z-score: -0.225; G2 cells, % of GMNN control: 1.39; call: inactive
